# PubChem BioAssay AID686943, Drosophila RNAi Screening Center, 2013
# Test: 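Knockdowns that increase or decrease active ERK after insulin receptor stimulation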 (primary screen)
# System: Drosophila S2R+ haemocyte-like cells expressing YFP-tagged ERK (Rolled)
# Knock-down reagent: long dsRNA against Drosophila genes
# Treatment: insulin stimulation versus unstimulated cells; dose and duration not given
# Detection: 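Per-plate z-scores of phospho-ERK immunostaining normalised to YFP-tagged ERK, measured with and without insulin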
# Direction: replicate 1, z-score of dpERK with insulin and replicate 2, z-score of dpERK with insulin: higher = more active ERK per ERK-YFP after insulin
# In all, the deposit lists about 23,000 reagents; this is an unselected part of those with a known target gene and a result. 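Extra replicates exist only for a retested subset of genes; insulin dose and duration not given; both raised and lowered dpERK matter.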 A plus sign joins genes that one reagent is predicted to hit. Further read-outs or replicates are left out here. Reagent sequences are not shown. Not stated in the record: the amount of reagent, the time to read-out.
target,amplicon,"replicate 1, z-score of dpERK with insulin","replicate 2, z-score of dpERK with insulin"
Cpr23B (Cuticular protein 23B),DRSC00555,0.72,2.18
CG15263,DRSC01974,0.46,0.33
CG4716,DRSC06884,-0.16,-0.22
CG13581,DRSC04216,0.19,0.43
vig2,DRSC14402,-0.11,0.1
Cfp1 (CXXC finger protein 1),DRSC18128,-1.24,0.35
mRpL9 (mitochondrial ribosomal protein L9),DRSC15678,-0.21,-1.7
CG13793,DRSC02297,0.14,0.63
CG9471,DRSC16499,0.4,0.28
CG6931,DRSC10750,-0.17,0.84
CG3566,DRSC18311,-1.05,-0.29
CG33306,DRSC01899,0.35,0.54
eater,DRSC15969,0.19,0.44
eater,DRSC22254,0.8,0.6
Neurl4 (Neuralized E3 ubiquitin protein ligase 4),DRSC10638,0.54,0.36
CG4297,DRSC00651,0.24,0.56
mRpL17 (mitochondrial ribosomal protein L17),DRSC08350,0.14,0.31
mRpS31 (mitochondrial ribosomal protein S31),DRSC10556,0.01,-0.23
CG3635,DRSC03729,-0.37,0.59
CG2736,DRSC04314,0.18,-0.08
ND5 (retired record),DRSC21281,0.2,0.34
CG3764,DRSC10375,-0.35,-0.67
Acp62F (Accessory gland protein 62F),DRSC08136,1.44,0.54
jagn (jagunal),DRSC12152,-0.4,0.28
karr,DRSC20681,0,0.84
sas (stranded at second),DRSC12631,1.12,0.54
BNIP3,DRSC11761,-0.14,0.93
Cluap1 (Clusterin associated protein 1),DRSC20637,0.66,0.1
Gcn5 (Gcn5 acetyltransferase),DRSC11248,0.93,-0.06
shep (alan shepard),DRSC08748,0.72,-3.16
shep (alan shepard),DRSC09765,0.68,1.02
shep (alan shepard),DRSC09771,0.16,-0.04
Sec3 (Secretory 3),DRSC10384,-0.02,0.57
CG33290,DRSC11493,-0.22,-0.03
drosha,DRSC07607,0.84,0.55
Atxn7 (Ataxin 7),DRSC00726,1.27,0.62
Lcp65APsi (pseudo),DRSC08795,0.15,0.14
Lcp65APsi (pseudo),DRSC10342,-0.21,0.98
CG8191,DRSC20091,0.68,1.1
PGRP-LC (Peptidoglycan recognition protein LC),DRSC08980,-0.25,0.05
PGRP-LC (Peptidoglycan recognition protein LC),DRSC10416,0.77,0.44
PGRP-LC (Peptidoglycan recognition protein LC),DRSC10417,-0.07,-0.6
fz4 (frizzled 4),DRSC18780,0.25,0.14
ATbp ((A+T)-stretch binding protein),DRSC20906,-0.92,0.41
CG33796,DRSC09417,-0.19,-0.04
CG34005,DRSC05700,1.17,0.32
ASPP,DRSC04305,-2.08,-3.1
PPP1R15 (Protein phosphatase 1 regulatory subunit 15),DRSC04422,-3.17,-2.46
Best3 (Bestrophin 3),DRSC09880,-0.03,1.16
Polr3G (RNA polymerase III subunit G),DRSC21511,0.25,0.56
CG2256,DRSC18220,0.2,0
CCT7 (Chaperonin containing TCP1 subunit 7),DRSC16410,-0.12,-0.27
Gel (Gelsolin),DRSC12350,0.33,-0.41
Nepl14 (Neprilysin-like 14),DRSC15631,-1.01,0.34
CG7025,DRSC03002,0.7,-0.04
CSN8 (COP9 signalosome subunit 8),DRSC02257,-0.06,-0.05
Fsn (F-box synaptic protein),DRSC06875,0.48,0.14
GluRIIC (Glutamate receptor IIC),DRSC00642,0.63,0.91
CG8785,DRSC07266,-0.03,0.25
CG7573,DRSC10884,0.02,0.53
Ankrd49,DRSC01894,-0.26,-0.24
Spn77Bb + Spn77Bc,DRSC10689,0.19,0.41
Spn77Bb + Spn77Bc,DRSC11793,1,0.4
Ge-1,DRSC02938,1.69,1.08
Ptpmeg2 (Protein tyrosine phosphatase Meg2),DRSC18277,-1.53,-0.3
Ptpmeg2 (Protein tyrosine phosphatase Meg2),DRSC18278,1.02,0.55
drn + CG43675,DRSC15147,-0.56,-0.78
ovo,DRSC18050,0.46,0.17
ovo,DRSC18812,0.9,0.34
l(1)10Bb (lethal (1) 10Bb),DRSC20346,0.02,1.03
Galphaq (G protein alpha subunit q),DRSC07432,-0.01,0.6
CR31824 (pseudo),DRSC01517,-0.64,-0.05
Gr10b (Gustatory receptor 10b),DRSC19477,-0.75,0.07

Already shown: entries from further up.
target,amplicon,"replicate 1, z-score of dpERK with insulin","replicate 2, z-score of dpERK with insulin"
fz4 (frizzled 4),DRSC18780,0.25,0.14
ATbp ((A+T)-stretch binding protein),DRSC20906,-0.92,0.41
CG33796,DRSC09417,-0.19,-0.04
CG34005,DRSC05700,1.17,0.32
ASPP,DRSC04305,-2.08,-3.1
PPP1R15 (Protein phosphatase 1 regulatory subunit 15),DRSC04422,-3.17,-2.46
Best3 (Bestrophin 3),DRSC09880,-0.03,1.16
Polr3G (RNA polymerase III subunit G),DRSC21511,0.25,0.56
CG2256,DRSC18220,0.2,0
CCT7 (Chaperonin containing TCP1 subunit 7),DRSC16410,-0.12,-0.27
Gel (Gelsolin),DRSC12350,0.33,-0.41
Nepl14 (Neprilysin-like 14),DRSC15631,-1.01,0.34
